Measured values as given in the supplement of paper PMC12823440, “Inhibitors supercharge kinase turnover through native proteolytic circuits” (Nature, 2025).
Counter-ions that a name gives are not always drawn. This is one part of the list. The calls rarely recur for the same compound in another form.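 In K562 cells expressing nanoluciferase-fused kinases, luminescence was recorded at 4 h intervals between 2 and 18 h, normalized as percent of control with DMSO at 100% and a positive control at 0%. A significant (2 sigma) signal drop marks a time point as decreased. The authors' rule for a hit is not shown and takes in more than the number of time points.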

Amino acid sequences for entries named in this document (tags omitted). A change or cut given only in a name is not applied to a line headed by its entry.
UniProt P31749: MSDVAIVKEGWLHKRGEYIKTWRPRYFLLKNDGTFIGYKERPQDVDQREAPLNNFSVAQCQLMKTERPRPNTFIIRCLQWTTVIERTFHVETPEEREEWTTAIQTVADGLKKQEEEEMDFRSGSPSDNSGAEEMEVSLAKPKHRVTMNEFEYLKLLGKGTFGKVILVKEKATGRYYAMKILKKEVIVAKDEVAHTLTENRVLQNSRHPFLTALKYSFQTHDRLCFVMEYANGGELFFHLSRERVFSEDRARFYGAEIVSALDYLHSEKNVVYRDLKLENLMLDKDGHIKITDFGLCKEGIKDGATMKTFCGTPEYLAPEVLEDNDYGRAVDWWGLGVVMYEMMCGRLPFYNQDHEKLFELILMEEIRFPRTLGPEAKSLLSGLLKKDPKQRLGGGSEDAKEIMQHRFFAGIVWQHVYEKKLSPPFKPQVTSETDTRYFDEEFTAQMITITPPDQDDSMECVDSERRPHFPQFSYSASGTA
UniProt Q9UM73: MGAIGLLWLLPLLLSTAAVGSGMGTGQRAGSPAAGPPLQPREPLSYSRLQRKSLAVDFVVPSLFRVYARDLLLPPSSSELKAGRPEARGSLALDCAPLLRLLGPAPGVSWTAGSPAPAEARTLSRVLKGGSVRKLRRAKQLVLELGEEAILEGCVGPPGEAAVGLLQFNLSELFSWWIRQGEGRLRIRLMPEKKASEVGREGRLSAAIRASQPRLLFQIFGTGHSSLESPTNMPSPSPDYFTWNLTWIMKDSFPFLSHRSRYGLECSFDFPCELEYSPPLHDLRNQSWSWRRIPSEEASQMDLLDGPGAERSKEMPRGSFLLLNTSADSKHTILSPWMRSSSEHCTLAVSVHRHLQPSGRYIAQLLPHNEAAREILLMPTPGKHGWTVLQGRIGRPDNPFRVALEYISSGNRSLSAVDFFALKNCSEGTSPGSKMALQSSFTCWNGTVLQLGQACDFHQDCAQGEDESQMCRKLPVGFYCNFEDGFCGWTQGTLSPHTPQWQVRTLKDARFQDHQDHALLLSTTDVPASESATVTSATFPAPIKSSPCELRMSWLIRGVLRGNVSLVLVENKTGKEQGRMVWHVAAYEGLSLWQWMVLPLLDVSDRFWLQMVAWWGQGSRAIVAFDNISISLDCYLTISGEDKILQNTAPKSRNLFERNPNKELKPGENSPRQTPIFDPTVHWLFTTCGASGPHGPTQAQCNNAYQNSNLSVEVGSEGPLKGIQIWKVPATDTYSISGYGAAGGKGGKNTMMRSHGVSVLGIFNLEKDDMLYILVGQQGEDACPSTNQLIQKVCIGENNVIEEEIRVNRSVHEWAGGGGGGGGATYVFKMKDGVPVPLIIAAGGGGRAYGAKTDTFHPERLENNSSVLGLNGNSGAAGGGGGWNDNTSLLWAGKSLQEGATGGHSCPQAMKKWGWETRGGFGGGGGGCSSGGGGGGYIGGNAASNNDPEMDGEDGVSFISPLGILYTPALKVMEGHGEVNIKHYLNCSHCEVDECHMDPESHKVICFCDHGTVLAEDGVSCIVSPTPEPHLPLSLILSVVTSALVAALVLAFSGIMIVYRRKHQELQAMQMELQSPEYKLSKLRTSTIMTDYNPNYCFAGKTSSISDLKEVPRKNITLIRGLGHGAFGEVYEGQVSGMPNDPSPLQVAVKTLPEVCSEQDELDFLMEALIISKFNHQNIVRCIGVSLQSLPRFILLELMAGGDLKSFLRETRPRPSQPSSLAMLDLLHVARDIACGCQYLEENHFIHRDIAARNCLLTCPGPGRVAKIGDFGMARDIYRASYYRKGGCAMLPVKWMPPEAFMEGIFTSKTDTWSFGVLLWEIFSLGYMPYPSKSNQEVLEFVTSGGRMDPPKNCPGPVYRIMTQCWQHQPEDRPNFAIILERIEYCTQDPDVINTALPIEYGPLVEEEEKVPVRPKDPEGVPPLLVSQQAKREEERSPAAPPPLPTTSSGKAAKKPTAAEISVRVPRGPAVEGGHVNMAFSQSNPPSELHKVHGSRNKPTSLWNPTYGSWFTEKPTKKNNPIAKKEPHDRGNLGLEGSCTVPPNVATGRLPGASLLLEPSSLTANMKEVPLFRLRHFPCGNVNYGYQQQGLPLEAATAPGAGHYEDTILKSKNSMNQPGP
UniProt P10398: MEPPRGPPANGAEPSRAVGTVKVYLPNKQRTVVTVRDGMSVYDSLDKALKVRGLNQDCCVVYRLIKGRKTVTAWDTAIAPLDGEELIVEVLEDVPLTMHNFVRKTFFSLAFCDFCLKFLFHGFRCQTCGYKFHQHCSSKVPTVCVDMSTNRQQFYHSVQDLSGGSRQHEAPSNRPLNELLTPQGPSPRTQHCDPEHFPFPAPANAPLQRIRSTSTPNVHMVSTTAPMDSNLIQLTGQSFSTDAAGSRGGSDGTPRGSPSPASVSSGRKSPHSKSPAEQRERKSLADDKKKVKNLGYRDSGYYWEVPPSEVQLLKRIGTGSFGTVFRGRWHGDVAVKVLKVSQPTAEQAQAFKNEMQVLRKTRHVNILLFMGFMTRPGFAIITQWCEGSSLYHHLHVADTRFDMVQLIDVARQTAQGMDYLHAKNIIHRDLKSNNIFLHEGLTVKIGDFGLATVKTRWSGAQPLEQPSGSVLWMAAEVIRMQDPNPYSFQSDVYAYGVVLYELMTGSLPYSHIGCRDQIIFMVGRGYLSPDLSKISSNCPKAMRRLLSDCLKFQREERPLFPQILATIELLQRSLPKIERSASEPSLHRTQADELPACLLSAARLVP
UniProt O14965: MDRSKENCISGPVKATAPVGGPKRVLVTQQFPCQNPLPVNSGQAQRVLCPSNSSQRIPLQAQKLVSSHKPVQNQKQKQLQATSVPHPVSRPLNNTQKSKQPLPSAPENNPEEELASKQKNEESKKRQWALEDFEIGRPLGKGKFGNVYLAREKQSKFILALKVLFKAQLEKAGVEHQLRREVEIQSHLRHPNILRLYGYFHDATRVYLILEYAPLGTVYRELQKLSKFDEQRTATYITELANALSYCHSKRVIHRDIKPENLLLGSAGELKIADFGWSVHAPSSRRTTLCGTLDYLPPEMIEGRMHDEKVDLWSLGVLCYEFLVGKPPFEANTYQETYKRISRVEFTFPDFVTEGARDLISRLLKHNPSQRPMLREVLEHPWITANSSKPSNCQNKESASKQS
UniProt Q96GD4, whole entry: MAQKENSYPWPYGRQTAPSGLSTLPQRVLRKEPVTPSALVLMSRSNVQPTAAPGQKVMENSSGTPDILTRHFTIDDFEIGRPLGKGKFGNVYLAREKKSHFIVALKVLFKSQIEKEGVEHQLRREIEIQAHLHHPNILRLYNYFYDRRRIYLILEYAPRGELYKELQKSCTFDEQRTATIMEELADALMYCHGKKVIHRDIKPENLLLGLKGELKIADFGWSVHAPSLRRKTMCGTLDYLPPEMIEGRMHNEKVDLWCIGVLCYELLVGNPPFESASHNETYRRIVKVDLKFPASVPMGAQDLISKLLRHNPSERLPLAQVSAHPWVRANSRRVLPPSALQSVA
UniProt Q9UQB9: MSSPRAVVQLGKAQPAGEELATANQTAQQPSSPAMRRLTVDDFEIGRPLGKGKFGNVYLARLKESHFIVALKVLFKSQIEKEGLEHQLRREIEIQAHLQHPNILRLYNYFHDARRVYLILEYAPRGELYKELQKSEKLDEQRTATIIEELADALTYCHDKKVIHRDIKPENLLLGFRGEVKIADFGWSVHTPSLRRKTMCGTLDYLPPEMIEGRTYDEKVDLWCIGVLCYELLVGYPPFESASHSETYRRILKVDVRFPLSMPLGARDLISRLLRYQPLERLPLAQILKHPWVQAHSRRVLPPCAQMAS
UniProt P51451: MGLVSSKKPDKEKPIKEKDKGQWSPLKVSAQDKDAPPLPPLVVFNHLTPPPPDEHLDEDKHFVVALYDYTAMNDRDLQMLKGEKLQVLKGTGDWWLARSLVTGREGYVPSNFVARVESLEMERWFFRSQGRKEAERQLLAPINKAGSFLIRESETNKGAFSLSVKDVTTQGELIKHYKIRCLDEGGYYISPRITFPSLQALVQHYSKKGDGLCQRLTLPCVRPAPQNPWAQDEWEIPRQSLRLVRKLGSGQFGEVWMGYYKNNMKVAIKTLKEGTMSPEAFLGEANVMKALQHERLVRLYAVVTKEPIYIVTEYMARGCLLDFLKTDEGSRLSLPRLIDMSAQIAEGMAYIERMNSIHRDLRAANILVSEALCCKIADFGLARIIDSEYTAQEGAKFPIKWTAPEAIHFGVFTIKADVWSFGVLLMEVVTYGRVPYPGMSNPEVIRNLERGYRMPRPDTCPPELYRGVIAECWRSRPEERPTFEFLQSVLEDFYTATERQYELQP
UniProt P51813: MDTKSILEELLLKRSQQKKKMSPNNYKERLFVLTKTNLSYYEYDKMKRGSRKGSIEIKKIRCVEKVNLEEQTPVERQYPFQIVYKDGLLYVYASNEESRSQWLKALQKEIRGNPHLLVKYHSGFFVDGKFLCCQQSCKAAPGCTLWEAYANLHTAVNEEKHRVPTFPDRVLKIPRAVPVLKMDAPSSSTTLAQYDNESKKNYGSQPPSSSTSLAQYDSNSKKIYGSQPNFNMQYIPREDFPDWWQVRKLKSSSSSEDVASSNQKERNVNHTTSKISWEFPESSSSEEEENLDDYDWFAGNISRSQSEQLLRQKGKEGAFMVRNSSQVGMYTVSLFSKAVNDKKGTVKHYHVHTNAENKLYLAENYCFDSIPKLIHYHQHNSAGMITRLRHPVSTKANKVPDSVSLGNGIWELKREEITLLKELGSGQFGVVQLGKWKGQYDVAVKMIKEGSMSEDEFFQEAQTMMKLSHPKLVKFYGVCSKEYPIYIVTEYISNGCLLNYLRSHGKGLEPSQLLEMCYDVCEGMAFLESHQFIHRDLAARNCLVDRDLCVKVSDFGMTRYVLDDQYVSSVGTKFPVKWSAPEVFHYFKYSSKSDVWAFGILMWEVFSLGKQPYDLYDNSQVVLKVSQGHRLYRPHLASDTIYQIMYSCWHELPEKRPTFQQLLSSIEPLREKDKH
UniProt P15056, whole entry, looked up: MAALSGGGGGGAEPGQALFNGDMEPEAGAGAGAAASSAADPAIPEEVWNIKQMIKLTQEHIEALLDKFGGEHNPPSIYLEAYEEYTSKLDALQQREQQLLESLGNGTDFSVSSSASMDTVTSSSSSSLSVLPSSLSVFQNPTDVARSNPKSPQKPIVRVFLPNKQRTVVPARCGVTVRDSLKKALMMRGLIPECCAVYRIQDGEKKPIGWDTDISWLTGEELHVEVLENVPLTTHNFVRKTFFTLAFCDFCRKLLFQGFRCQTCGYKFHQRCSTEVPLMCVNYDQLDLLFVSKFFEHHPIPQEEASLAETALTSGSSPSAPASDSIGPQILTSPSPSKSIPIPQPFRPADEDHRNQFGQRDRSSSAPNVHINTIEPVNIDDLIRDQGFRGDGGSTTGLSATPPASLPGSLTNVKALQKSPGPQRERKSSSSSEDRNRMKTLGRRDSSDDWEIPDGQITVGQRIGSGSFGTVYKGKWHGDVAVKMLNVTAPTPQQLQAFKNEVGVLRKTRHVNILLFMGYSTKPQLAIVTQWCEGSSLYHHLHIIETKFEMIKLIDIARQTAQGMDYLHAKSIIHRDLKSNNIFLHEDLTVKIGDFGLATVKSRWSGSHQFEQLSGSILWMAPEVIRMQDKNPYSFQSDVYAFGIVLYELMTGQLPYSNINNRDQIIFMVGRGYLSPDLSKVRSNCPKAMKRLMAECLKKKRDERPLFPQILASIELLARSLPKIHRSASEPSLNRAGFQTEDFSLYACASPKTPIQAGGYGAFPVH

Columns and labels:
Experiment in all cases: kinase-Nluc reporter destabilization hit call (1 = scored as downregulated) (binary); higher = compound decreases kinase abundance
Details in all cases: K562, 2-18 h
AKT1 = AKT1 (UniProt P31749)
ALK = ALK (UniProt Q9UM73)
ARAF = ARAF (UniProt P10398)
AURKA = AURKA (UniProt O14965)
AURKB = AURKB (UniProt Q96GD4)
AURKC = AURKC (UniProt Q9UQB9)
BLK = BLK (UniProt P51451)
BMX = BMX (UniProt P51813)
BRAF = BRAF (UniProt P15056)

Measured: kinase-Nluc reporter destabilization hit call

Cc1ccc2c(=O)c3cccc(CC(=O)O)c3oc2c1C [Vadimezan]
inactive: AKT1; 10 µM 0 | ALK; 10 µM 0 | ARAF; 10 µM 0 | AURKA; 10 µM 0 | AURKB; 10 µM 0 | AURKC; 10 µM 0 | BLK; 10 µM 0 | BMX; 10 µM 0 | BRAF; 10 µM 0

CCN(CC)CCNC(=O)c1c(C)[nH]c(/C=C2\C(=O)Nc3ccc(F)cc32)c1C [Sunitinib]
inactive: AKT1; 2.5 µM 0 | ALK; 2.5 µM 0 | ARAF; 2.5 µM 0 | AURKA; 2.5 µM 0 | AURKB; 2.5 µM 0 | AURKC; 2.5 µM 0 | BLK; 2.5 µM 0 | BMX; 2.5 µM 0 | BRAF; 2.5 µM 0

CCOc1cc2ncc(C#N)c(Nc3ccc(F)c(Cl)c3)c2cc1NC(=O)/C=C/CN(C)C [Pelitinib]
inactive: AKT1; 2.5 µM 0 | ALK; 2.5 µM 0 | ARAF; 2.5 µM 0 | AURKA; 2.5 µM 0 | AURKB; 2.5 µM 0 | AURKC; 2.5 µM 0 | BLK; 2.5 µM 0 | BRAF; 2.5 µM 0

Nc1ncnc2c1c(-c1cnc3[nH]ccc3c1)nn2C1CCCC1
inactive: AKT1; 2.5 µM 0 | ALK; 2.5 µM 0 | ARAF; 2.5 µM 0 | AURKA; 2.5 µM 0 | AURKB; 2.5 µM 0 | AURKC; 2.5 µM 0 | BLK; 2.5 µM 0 | BMX; 2.5 µM 0 | BRAF; 2.5 µM 0

Cc1cc(Nc2cc(N3CCN(C)CC3)nc(/C=C/c3ccccc3)n2)n[nH]1
inactive: AKT1; 2.5 µM 0 | ALK; 2.5 µM 0 | ARAF; 2.5 µM 0 | AURKA; 2.5 µM 0 | AURKB; 2.5 µM 0 | AURKC; 2.5 µM 0 | BLK; 2.5 µM 0 | BMX; 2.5 µM 0 | BRAF; 2.5 µM 0

O=C(NCCCNc1nc(Nc2cccc(CN3CCOCC3)c2)ncc1C1CC1)C1CCC1
inactive: AKT1; 10 µM 0 | ALK; 10 µM 0 | ARAF; 10 µM 0 | AURKA; 10 µM 0 | AURKB; 10 µM 0 | AURKC; 10 µM 0 | BLK; 10 µM 0 | BMX; 10 µM 0 | BRAF; 10 µM 0

CNC(=O)c1cc(Oc2ccc(NC(=O)Nc3ccc(Cl)c(C(F)(F)F)c3)cc2)ccn1 [Sorafenib (Tosylate)]
inactive: AKT1; 10 µM 0 | ALK; 10 µM 0 | ARAF; 10 µM 0 | AURKA; 10 µM 0 | AURKC; 10 µM 0 | BLK; 10 µM 0 | BMX; 10 µM 0

CC1(C)CNc2cc(NC(=O)c3cccnc3NCc3ccncc3)ccc21 [Motesanib (Diphosphate)]
inactive: AKT1; 2.5 µM 0 | ALK; 2.5 µM 0 | ARAF; 2.5 µM 0 | AURKA; 2.5 µM 0 | AURKB; 2.5 µM 0 | AURKC; 2.5 µM 0 | BLK; 2.5 µM 0 | BMX; 2.5 µM 0

O=S(=O)(c1cccc2c(O)nccc12)N1CCCNCC1 [Hydroxyfasudil]
inactive: AKT1; 10 µM 0 | ALK; 10 µM 0 | ARAF; 10 µM 0 | AURKA; 10 µM 0 | AURKB; 10 µM 0 | AURKC; 10 µM 0 | BLK; 10 µM 0 | BMX; 10 µM 0

CN1CCN(c2ccc3nc(-c4c(N)c5c(F)cccc5[nH]c4=O)[nH]c3c2)CC1 [Dovitinib]
inactive: AKT1; 2.5 µM 0 | ALK; 2.5 µM 0 | ARAF; 2.5 µM 0 | AURKA; 2.5 µM 0 | AURKB; 2.5 µM 0 | AURKC; 2.5 µM 0 | BLK; 2.5 µM 0 | BMX; 2.5 µM 0 | BRAF; 2.5 µM 0

CNC(=O)c1cc(Oc2ccc(NC(=O)Nc3ccc(Cl)c(C(F)(F)F)c3)cc2)ccn1 [Sorafenib]
inactive: AKT1; 2.5 µM 0 | ALK; 2.5 µM 0 | ARAF; 2.5 µM 0 | AURKA; 2.5 µM 0 | AURKC; 2.5 µM 0 | BLK; 2.5 µM 0 | BMX; 2.5 µM 0

Cc1ccc(Nc2nccc(N(C)c3ccc4c(C)n(C)nc4c3)n2)cc1S(N)(=O)=O [Pazopanib]
inactive: AKT1; 10 µM 0 | ALK; 10 µM 0 | ARAF; 10 µM 0 | AURKA; 10 µM 0 | AURKB; 10 µM 0 | AURKC; 10 µM 0 | BLK; 10 µM 0 | BMX; 10 µM 0

Pulled one by one from above (2):
CN1CCN(c2ccc3nc(-c4c(N)c5c(F)cccc5[nH]c4=O)[nH]c3c2)CC1 [Dovitinib]
inactive: AKT1; 2.5 µM 0 | ALK; 2.5 µM 0 | ARAF; 2.5 µM 0 | AURKA; 2.5 µM 0 | AURKB; 2.5 µM 0 | AURKC; 2.5 µM 0 | BLK; 2.5 µM 0 | BMX; 2.5 µM 0 | BRAF; 2.5 µM 0

CNC(=O)c1cc(Oc2ccc(NC(=O)Nc3ccc(Cl)c(C(F)(F)F)c3)cc2)ccn1 [Sorafenib]
inactive: AKT1; 2.5 µM 0 | ALK; 2.5 µM 0 | ARAF; 2.5 µM 0 | AURKA; 2.5 µM 0 | AURKC; 2.5 µM 0 | BLK; 2.5 µM 0 | BMX; 2.5 µM 0

Next part

Cc1ccc(Nc2nccc(N(C)c3ccc4c(C)n(C)nc4c3)n2)cc1S(N)(=O)=O [Pazopanib (Hydrochloride)]
inactive: AKT1; 10 µM 0 | ALK; 10 µM 0 | ARAF; 10 µM 0 | AURKA; 10 µM 0 | AURKB; 10 µM 0 | AURKC; 10 µM 0 | BLK; 10 µM 0 | BMX; 10 µM 0

Cc1cn(-c2cc(NC(=O)c3ccc(C)c(Nc4nccc(-c5cccnc5)n4)c3)cc(C(F)(F)F)c2)cn1 [Nilotinib]
inactive: AKT1; 2.5 µM 0 | ALK; 2.5 µM 0 | ARAF; 2.5 µM 0 | AURKA; 2.5 µM 0 | AURKB; 2.5 µM 0 | AURKC; 2.5 µM 0 | BLK; 2.5 µM 0

O=c1ncn2nc(Sc3ccc(F)cc3F)ccc2c1-c1c(Cl)cccc1Cl [Neflamapimod]
inactive: AKT1; 10 µM 0 | ALK; 10 µM 0 | ARAF; 10 µM 0 | AURKA; 10 µM 0 | AURKB; 10 µM 0 | AURKC; 10 µM 0 | BLK; 10 µM 0 | BMX; 10 µM 0 | BRAF; 10 µM 0

O=C(O)c1ccc(Nc2ncc3c(n2)-c2ccc(Cl)cc2C(c2c(F)cccc2F)=NC3)cc1
inactive: AKT1; 10 µM 0 | ALK; 10 µM 0 | ARAF; 10 µM 0 | AURKA; 10 µM 0 | AURKB; 10 µM 0 | AURKC; 10 µM 0 | BLK; 10 µM 0 | BRAF; 10 µM 0

CC(C)n1nc(-c2cc3cc(O)ccc3[nH]2)c2c(N)ncnc21 [Torkinib]
inactive: AKT1; 2.5 µM 0 | ALK; 2.5 µM 0 | ARAF; 2.5 µM 0 | AURKA; 2.5 µM 0 | AURKB; 2.5 µM 0 | AURKC; 2.5 µM 0 | BLK; 2.5 µM 0 | BRAF; 2.5 µM 0
